These are yes or no findings as the source states them, for the method shown. Some binding calls cover weakened binding; strength is not graded here.
Key:
[1] = biological target: NRP2A peptide (biotinylated) (human); test: BLI, peptide on sensor
[2] = biological target: NRP2A peptide (biotinylated) (human); test: BLI, isoform peptide on sensor, 50 nM antibody
[3] = biological target: human NRP2a v2 expressed on Expi293F cells (human) (UniProt O60462); test: flow cytometry, Expi293F cells transfected with the target, fluorescent anti-mouse secondary; MFI signal relative to mock-transfected cells
[4] = biological target: mNRP2A peptide (biotinylated) (mouse); test: BLI, mouse peptide on sensor, 50 nM antibody
[5] = biological target: NRP2A peptide (biotinylated) (human); test: BLI, peptide on sensor, 50 nM antibody
[6] = biological target: mNRP2A peptide (biotinylated) (mouse); test: BLI, peptide on sensor, 50 nM antibody
[7] = biological target: NRP2A peptide (biotinylated) (human); test: peptide binding (Examples 4 and 5)
[8] = biological target: NRP2A peptide (biotinylated) (human); test: peptide ELISA
[9] = biological target: mNRP2A peptide (biotinylated) (mouse); test: peptide ELISA

By UniProt entry, the sequences of proteins in these tests, tags left out. Where a name states a change or a piece, a line headed by the entry shows the natural chain unless it says otherwise.
UniProt O60462: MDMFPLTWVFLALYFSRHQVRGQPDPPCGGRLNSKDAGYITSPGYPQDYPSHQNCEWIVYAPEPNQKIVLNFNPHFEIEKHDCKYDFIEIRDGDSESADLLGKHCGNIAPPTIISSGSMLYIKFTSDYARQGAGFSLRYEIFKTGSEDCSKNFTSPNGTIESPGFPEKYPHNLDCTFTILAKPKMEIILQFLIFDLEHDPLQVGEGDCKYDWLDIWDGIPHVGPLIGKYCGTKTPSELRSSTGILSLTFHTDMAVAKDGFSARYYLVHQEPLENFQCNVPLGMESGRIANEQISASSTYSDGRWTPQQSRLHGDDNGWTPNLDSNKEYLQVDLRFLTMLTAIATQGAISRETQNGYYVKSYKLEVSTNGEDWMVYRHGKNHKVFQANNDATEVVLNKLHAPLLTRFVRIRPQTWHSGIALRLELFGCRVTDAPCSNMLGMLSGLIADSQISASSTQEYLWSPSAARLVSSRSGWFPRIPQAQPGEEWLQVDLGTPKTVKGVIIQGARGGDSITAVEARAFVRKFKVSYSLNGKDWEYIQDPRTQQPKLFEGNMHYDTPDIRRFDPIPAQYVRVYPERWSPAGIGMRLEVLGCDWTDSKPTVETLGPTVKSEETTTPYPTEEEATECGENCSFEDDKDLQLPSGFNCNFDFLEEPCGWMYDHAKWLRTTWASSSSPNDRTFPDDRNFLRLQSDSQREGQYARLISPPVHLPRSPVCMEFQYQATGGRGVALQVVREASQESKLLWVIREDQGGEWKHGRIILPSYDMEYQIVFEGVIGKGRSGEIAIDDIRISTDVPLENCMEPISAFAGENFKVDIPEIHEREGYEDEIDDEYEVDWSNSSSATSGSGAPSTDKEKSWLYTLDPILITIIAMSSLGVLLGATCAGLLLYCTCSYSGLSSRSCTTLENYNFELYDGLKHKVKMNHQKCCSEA

Measured: binding

B1: aNRP2-409v3 (antibody, V domains shown)
VH: EVQFVETGGGLVQPKGSLKLSCAASGFTFNTNAMNWVRQAPGKGLEWVARIRTKSNNYATYYADSVKDRFTISRDDSQNILYLQMNNLKTEDTAMYYCVTLDSSGYVWFAYWGQGTLVTVSA
VL: DIQMTQSPSSLSASLGERVSLTCRASQDIGSRLNWLQQEPDGTIKRLIYATSSLDSGVPKRFSGSRSGSDYSLTISSLESEDFVDYYCLQYASSPYTFGGGTKLEIK
binds: all assays above
